Data on 1 substance can be found in paper PMC3642104.

Chains of the proteins cited; added tags and fusions are not shown.
UniProt P63208: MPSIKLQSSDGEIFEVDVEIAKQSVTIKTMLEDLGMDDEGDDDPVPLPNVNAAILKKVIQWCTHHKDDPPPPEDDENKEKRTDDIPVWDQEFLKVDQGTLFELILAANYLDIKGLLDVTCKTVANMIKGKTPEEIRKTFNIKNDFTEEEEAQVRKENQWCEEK

No constants are given. Whether binding was seen depends on the method and setting. In cells and extracts the contact can be indirect. These calls come from enrichment with a bait or labelling near it, and not all partners need be listed. For part of these data: A no says only that the protein was not detected with the bait. Sequences can lack the tags named with a protein.

Assay in all cases: affinity purification with mass spectrometry; FLAG agarose immunoprecipitation from 50 mg CHAPS lysate of transiently transfected 293T cells, overnight at 4 degrees, elution with FLAG peptide, LC-MS/MS; FLAG only lysate as control
The target in test [1] is T1, FLAG-Fbxw4^−fbox (mouse) (UniProt Q9JMJ2).
T1 sequence: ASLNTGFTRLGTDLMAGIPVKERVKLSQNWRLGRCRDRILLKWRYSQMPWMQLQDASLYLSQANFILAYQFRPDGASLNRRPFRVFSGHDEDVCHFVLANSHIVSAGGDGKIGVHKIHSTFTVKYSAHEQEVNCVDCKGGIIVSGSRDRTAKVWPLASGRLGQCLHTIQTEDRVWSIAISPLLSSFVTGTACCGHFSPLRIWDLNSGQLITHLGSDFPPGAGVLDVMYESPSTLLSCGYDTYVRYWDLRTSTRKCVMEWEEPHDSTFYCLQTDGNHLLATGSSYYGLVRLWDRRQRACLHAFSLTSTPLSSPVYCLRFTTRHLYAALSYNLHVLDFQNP

In test [2] the target is T2, FLAG-tagged Fbxo46 (mouse) (UniProt Q8BG80).
T2 sequence: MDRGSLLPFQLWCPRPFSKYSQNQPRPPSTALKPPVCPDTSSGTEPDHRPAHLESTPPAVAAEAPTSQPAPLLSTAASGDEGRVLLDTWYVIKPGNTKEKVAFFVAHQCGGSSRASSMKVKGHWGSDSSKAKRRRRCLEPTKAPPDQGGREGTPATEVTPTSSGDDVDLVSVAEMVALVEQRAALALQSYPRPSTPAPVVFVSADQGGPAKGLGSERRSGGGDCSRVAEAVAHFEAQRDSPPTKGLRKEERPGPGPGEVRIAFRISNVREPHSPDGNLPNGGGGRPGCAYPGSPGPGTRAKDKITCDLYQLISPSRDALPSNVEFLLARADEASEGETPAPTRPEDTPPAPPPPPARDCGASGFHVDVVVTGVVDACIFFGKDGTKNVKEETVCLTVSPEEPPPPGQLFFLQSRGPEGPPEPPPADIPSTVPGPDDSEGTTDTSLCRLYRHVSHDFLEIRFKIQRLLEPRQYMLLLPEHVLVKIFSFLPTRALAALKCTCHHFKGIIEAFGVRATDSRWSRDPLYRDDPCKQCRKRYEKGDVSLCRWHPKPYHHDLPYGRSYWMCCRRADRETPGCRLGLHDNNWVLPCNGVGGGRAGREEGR

The target in test [3] is T3, FLAG-tagged Fbxw4 (mouse) (UniProt Q9JMJ2).
T3 sequence: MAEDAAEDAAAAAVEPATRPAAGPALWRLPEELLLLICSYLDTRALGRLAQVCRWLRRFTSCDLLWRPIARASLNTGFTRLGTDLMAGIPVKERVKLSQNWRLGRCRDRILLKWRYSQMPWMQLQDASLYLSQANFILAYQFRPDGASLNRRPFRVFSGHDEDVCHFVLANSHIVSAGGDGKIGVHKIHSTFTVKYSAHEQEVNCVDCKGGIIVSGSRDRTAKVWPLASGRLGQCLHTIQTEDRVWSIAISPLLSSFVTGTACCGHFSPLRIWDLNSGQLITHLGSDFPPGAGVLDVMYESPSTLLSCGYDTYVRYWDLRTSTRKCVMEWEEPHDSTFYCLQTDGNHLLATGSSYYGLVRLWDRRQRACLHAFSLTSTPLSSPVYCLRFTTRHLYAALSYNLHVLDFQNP

As to SKP1 (from UniProt P63208 1-163), the binding entry in test [1] was “no binding”; in test [2] it was “binds”; in test [3] it was “binds”.
